According to PMC5442318, “Hundreds of dual-stage antimalarial molecules discovered by a functional gametocyte screen” (Nature Communications, 2017):

Test system: HepG2 cells
Experiment: HepG2 cytotoxicity assay
Assay type: cell-based
Details: HepG2 TOX50 vs Pf FGAA IC50
Method in brief: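 Post-incubation CellTiter-Glo luminescence; 30 min RT equilibration, 10 min RT stabilization before reading.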

SMILES | Selectivity ratio
COc1c(CNCCCCCCNCc2c(OC)c(OC)c3ccccc3c2OC)c(OC)c2ccccc2c1OC.CS(=O)(=O)O [TCMDC-137837] | 1.20
C#CCOc1ccc2ccccc2c1CNCCCCCCNCc1c(OCC#C)ccc2ccccc12.CS(=O)(=O)O [TCMDC-137838] | 2.78
Nc1nc(N)c2c(ccc3[nH]c(-c4ccccc4Cl)nc32)n1 [TCMDC-137840] | 0.52
COc1cc2ccccc2c(OC)c1CCNCCCCNCCc1c(OC)cc2ccccc2c1OC.CS(=O)(=O)O [TCMDC-137842] | 3.36
CCCCOc1cc(OC)c2ccccc2c1CCNCCCCNCCc1c(OCCCC)cc(OC)c2ccccc12.CS(=O)(=O)O [TCMDC-137845] | 2.59
CCCCOc1c(CCNCCCCNCCc2cc(OC)c3ccccc3c2OCCCC)cc(OC)c2ccccc12.CS(=O)(=O)O [TCMDC-137848] | 3.22
CS(=O)(=O)O.FC(F)(F)COc1ccc(CNCCCCCCNCc2ccc(OCC(F)(F)F)c3ccccc23)c2ccccc12 [TCMDC-137853] | 3.93
COc1c(CCNCCCCNCCc2cc(Cl)c3ccccc3c2OC)cc(Cl)c2ccccc12.CS(=O)(=O)O [TCMDC-137869] | 5.33
CN(CCCNCc1ccc2ccccc2c1)CCCNCc1ccc2ccccc2c1.Cl [TCMDC-137908] | 57.08
COc1ccc2ccccc2c1CNCCCCCCNCc1c(OC)ccc2ccccc12.Cl [TCMDC-137915] | 5.99
COc1ccc2c(c1)CC(C)(C)NC2CCCCCCCCC1NC(C)(C)Cc2cc(OC)ccc21.O=C(O)C(=O)O (stereo not drawn) [TCMDC-137935] | 3.82
CCOc1cc(CNCCCCCCNCc2cc(OCC)c(OCC)c3ccccc23)c2ccccc2c1OCC.CS(=O)(=O)O [TCMDC-137939] | 1.12
CCOc1cc2ccccc2cc1CNCCCCCCNCc1cc2ccccc2cc1OCC.CS(=O)(=O)O [TCMDC-137940] | 4.71
COc1cc2ccccc2cc1CCNCCCCNCCc1cc2ccccc2cc1OC.CS(=O)(=O)O [TCMDC-137944] | 2.69
COc1cc2c(OC)cccc2cc1CNCCCCCCNCc1cc2cccc(OC)c2cc1OC.CS(=O)(=O)O [TCMDC-137945] | 2.69
CCCOc1c(CCNCCCCNCCc2ccc3ccccc3c2OCCC)ccc2ccccc12.CS(=O)(=O)O [TCMDC-137950] | 2.69
CCCOc1ccc(CCNCCCCNCCc2ccc(OCCC)c3ccccc23)c2ccccc12.CS(=O)(=O)O [TCMDC-137952] | 3.53
COc1ccc2c(OC)c(CNCCCCCCNCc3ccc4cc(OC)ccc4c3OC)ccc2c1.CS(=O)(=O)O [TCMDC-137953] | 2.12
COc1c(CNCCCCCCNCc2cc(Cl)c3ccccc3c2OC)cc(Cl)c2ccccc12.CS(=O)(=O)O [TCMDC-137958] | 3.92
COc1ccc(CCNCCCCNCCc2ccc(OC)c3ccccc23)c2ccccc12.CS(=O)(=O)O [TCMDC-137961] | 4.44
CCCCCCOc1ccc2ccccc2c1CNCCCCCCNCc1c(OCCCCCC)ccc2ccccc12.CS(=O)(=O)O [TCMDC-137963] | 1.60
CC(C)Oc1ccc2ccccc2c1CNCCCCCCNCc1c(OC(C)C)ccc2ccccc12.CS(=O)(=O)O [TCMDC-137965] | 2.01
CCCOc1ccc2ccccc2c1CNCCCCCCNCc1c(OCCC)ccc2ccccc12.CS(=O)(=O)O [TCMDC-137966] | 1.93
CC(C)COc1ccc2ccccc2c1CNCCCCCCNCc1c(OCC(C)C)ccc2ccccc12.CS(=O)(=O)O [TCMDC-137972] | 2.69
CCCCOc1c(CNCCCCCCNCc2ccc3ccccc3c2OCCCC)ccc2ccccc12.CS(=O)(=O)O [TCMDC-137975] | 1.48
COc1ccccc1-c1nc2c(ccc3nc(N)nc(N)c32)[nH]1 [TCMDC-137976] | 2.53

SMILES | Selectivity ratio
CC(C)(C)c1ccc(-c2cc3c(ccc4nc(N)nc(N)c43)[nH]2)cc1 [TCMDC-137977] | 2.42
CC(C)(C)c1ccc(-c2nc3c(ccc4nc(N)nc(N)c43)[nH]2)cc1.Cl [TCMDC-137984] | 8.21
CCCN(CCC)CCCN(CCCN(CCC)CCC)c1cc(C)nc(Nc2ccc3cc(Br)ccc3c2)n1.Cl [TCMDC-138006] | 3.48
CCCCCCCCN1CCN(CCCCCCNc2c3ccccc3nc3ccccc23)CC1.Cl [TCMDC-138015] | 5.26
Cl.Clc1ccc(CNCCCCCCCNCc2ccc(Cl)c(Cl)c2)cc1Cl [TCMDC-138075] | 6.57
COc1cc2nc(N3CCC(CNC(=O)c4ccc(-c5ccc(-c6noc(C)n6)cc5C)cc4)CC3)nc(N)c2cc1OC [TCMDC-138155] | 4.54
CC(=O)c1ccc2nc[nH]c(=O)c2c1 [TCMDC-138172] | 6.38
COc1cc2nc(NCc3cccc(CNC(=O)c4ccc(-c5ccc(C(C)=O)cc5)cc4)c3)nc(N)c2cc1OC.O=C(O)C(F)(F)F [TCMDC-138177] | 1.44
COc1cc2nc(N3CCN(C(=O)c4c(Cl)nsc4-c4ccccc4Cl)CC3)nc(N)c2cc1OC.O=C(O)C(F)(F)F [TCMDC-138186] | 5.94
Cc1ccc(C(=O)Nc2ccc(Nc3ccnc4cc(-c5ccccn5)ccc34)cc2O)cc1.Cl [TCMDC-138205] | 2.35
COc1ccc(N2CCN(CCCCNCc3ccc(NC(=O)c4cc(Cl)cc(Cl)c4)cc3)CC2)c(OC)c1 [TCMDC-138226] | 1.42
COc1cc2nc(Nc3ccc4c(ccn4Cc4ccccc4)c3)nc(Nc3ccc4c(ccn4Cc4ccccc4)c3)c2cc1OC [TCMDC-138237] | 8.95
CN(C)CCNCc1ccc(-c2ccc3c(Nc4ccc(Cl)cc4F)ccnc3c2)o1 [TCMDC-138391] | 0.52
Fc1cc(Cl)ccc1Nc1ccnc2cc(-c3ccc(CN4CCOCC4)o3)ccc12 [TCMDC-138393] | 8.82
Cl.Fc1cc(Cl)ccc1Nc1ccnc2cc(-c3ccc(CN4CCNCC4)o3)ccc12 [TCMDC-138394] | 6.32
CN(C)CCNCc1ccc(-c2ccc3c(Nc4ccc(Oc5ccccc5)cc4)ccnc3c2)o1 [TCMDC-138399] | 3.66
CN(C)CCN(C)Cc1cccc(-c2ccc3c(Nc4ccc(F)cc4Cl)ccnc3c2)c1 [TCMDC-138416] | 0.87
CN(C)CCN(C)Cc1ccc(-c2ccc3c(Nc4ccc(Oc5ccccn5)cc4)ccnc3c2)o1 [TCMDC-138426] | 2.62
CN(C)CCNCc1cccc(-c2ccc3c(Nc4ccc(Oc5ccccn5)cc4)ccnc3c2)c1 [TCMDC-138493] | 4.88
COc1cc2nc(N3CCC(CCCC4CCNCC4)CC3)nc(NCc3ccccn3)c2cc1OC.O=C(O)C(F)(F)F [TCMDC-138494] | 2.70
CN(/N=C/C=C/c1ccc(Cl)cc1)c1nc(NCCc2ccc(O)cc2)nc(N2CCNCC2)n1 [TCMDC-138546] | 6.73
CN1CCN(CCCNCc2cccc(Nc3nccc(Nc4ccc(Oc5ccccc5)cc4)n3)c2)CC1 [TCMDC-138616] | 4.77
Cl.O=C(NCCCCN1CCC(c2ccc3c(c2O)CCCC3)CC1)c1ccc(NC(=O)c2ccc(Cl)cc2)cc1 [TCMDC-138645] | 2.55
CC(C)(C)c1ccc(CNCCOc2ccc(Nc3nnc(-c4ccc(-c5ncc[nH]5)cc4)o3)c3ccccc23)cc1.O=C(O)C(F)(F)F [TCMDC-138667] | 9.58
C=CCC1OC(=O)c2cc(OC)cc(OC)c21 (stereo not drawn) [TCMDC-138677] | 6.36
